Values from PubChem BioAssay AID1259254 (NCATS, 2017).
In all, the deposit lists about 59,000 reagents; below is an unselected part. About 1,550 of all reagents (2.6%) count as active. 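G2 share is only a proxy for re-replication; each gene was hit by three separate siRNAs, and active genes were retested.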 Raw values are not corrected between plates. Entries without a mark were called inactive. Not given: the amount of reagent.

Assay: 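Finding genes that stop cells copying their DNA twice in one cycle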 (primary screen)
Cell system: human HCT116 colorectal cancer cells
Knock-down reagent: single siRNA against human genes
Timing: 3 days
Detection: 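Imaged Hoechst DNA stain sorts each cell into a cycle phase by DNA amount; per plate, G2 fraction set to 0% for non-targeting and 100% for GMNN siRNA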
Reading the numbers: G2 robust z-score and G2 cells, % of GMNN control: higher = more G2 cells, more excess DNA replication; raw share of cells in G2: higher = larger share of cells with G2 DNA content
Hit rule: 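Active siRNAs have a G2 robust z of 5 or more median absolute deviations over the median, which in these data means about 38% or higher of GMNN control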

target gene | PubChem SID | G2 robust z-score | G2 cells, % of GMNN control | raw share of cells in G2 (%)
SERPINA6 | SID160732083 | 0.927 | 9.49 | 7.52
SERPINA6 | SID160737234 | -0.393 | 0.203 | 4.79
SERPINA6 | SID160737244 | 0.715 | 8 | 7.92
CACNG7 | SID160731643 | -0.832 | -2.89 | 3.25
CACNG7 | SID160746975 | 2.75 | 22.3 | 13.4
CACNG7 | SID160746976 | -0.511 | -0.631 | 4.57
AGTRAP | SID160745557 | -0.00729 | 2.92 | 5.5
AGTRAP | SID160745558 | 1.29 | 12 | 10.2
AGTRAP | SID160745559 | -0.5 | -0.55 | 2.86
PRUNE1 | SID160746855 | -0.385 | 0.256 | 4.45
PRUNE1 | SID160746856 | -0.353 | 0.486 | 4.69
PRUNE1 | SID160746857 | -0.83 | -2.87 | 2.12
TMEM14DP | SID160725811 | 0.91 | 9.37 | 6.64
TMEM14DP | SID160725812 | 13 (active) | 94.2 | 30.6
TMEM14DP | SID160769472 | -0.266 | 1.09 | 4.05
SEL1L2 | SID160750431 | -0.187 | 1.65 | 5.4
SEL1L2 | SID160750432 | 1 | 10 | 7.83
SEL1L2 | SID160750433 | -0.416 | 0.0393 | 5.45
ZNF782 | SID160759653 | -0.333 | 0.626 | 3.31
ZNF782 | SID160759654 | 0.649 | 7.53 | 5.78
ZNF782 | SID160759655 | -0.13 | 2.05 | 4.25
UPF3B | SID160748266 | 0.273 | 4.89 | 6.71
UPF3B | SID160748267 | -0.174 | 1.75 | 5.39
UPF3B | SID160748268 | -0.632 | -1.48 | 2.31
GNE | SID160724059 | -0.493 | -0.504 | 5.43
GNE | SID160724068 | 0.304 | 5.1 | 7.05
GNE | SID160730395 | -0.96 | -3.79 | 2.47
RNF114 | SID160744616 | 0.124 | 3.84 | 4.15
RNF114 | SID160744617 | 1.3 | 12.1 | 11.4
RNF114 | SID160744618 | -0.932 | -3.59 | 2.51
ACTR1B | SID160725611 | -0.422 | -0.00256 | 3.2
ACTR1B | SID160725620 | -0.592 | -1.2 | 4.75
ACTR1B | SID160725625 | 0.8 | 8.59 | 8.24
DHRS13 | SID160758465 | 0.441 | 6.07 | 6.92
DHRS13 | SID160758466 | -0.873 | -3.17 | 3.37
DHRS13 | SID160758467 | 0.827 | 8.79 | 10.1
ZNF485 | SID160761564 | -0.505 | -0.584 | 2.89
ZNF485 | SID160761566 | -0.659 | -1.67 | 2.59
ZNF485 | SID160761567 | -0.398 | 0.17 | 3.58
HAPLN2 | SID160724507 | -0.761 | -2.39 | 2.07
HAPLN2 | SID160747079 | -0.897 | -3.35 | 3.12
HAPLN2 | SID160747081 | 1.22 | 11.6 | 9.78
BARHL2 | SID160764718 | -0.379 | 0.298 | 6.03
BARHL2 | SID160764719 | -0.625 | -1.43 | 3.76
BARHL2 | SID160764720 | 1.34 | 12.4 | 9.8
EIF1B | SID160728093 | 0.152 | 4.04 | 7.15
EIF1B | SID160728094 | 1.2 | 11.4 | 8.71
EIF1B | SID160728095 | -0.493 | -0.5 | 3.22
KEAP1 | SID160723163 | -0.744 | -2.27 | 2.77
KEAP1 | SID160723164 | -1.01 | -4.13 | 4.15
KEAP1 | SID160723165 | -0.799 | -2.65 | 2.23
PRKRA | SID160720376 | 5.05 (active) | 38.5 | 18.8
PRKRA | SID160720377 | 0.64 | 7.47 | 7.93
PRKRA | SID160720378 | 1.98 | 16.9 | 10.8
ZNF648 | SID160756657 | 0.143 | 3.97 | 4.46
ZNF648 | SID160756658 | 3.68 | 28.8 | 13.2
ZNF648 | SID160756659 | -1.12 | -4.92 | 1.8
HNRNPC | SID160775121 | 1.04 | 10.3 | 8.78
HNRNPC | SID160775123 | -0.0547 | 2.58 | 6.67
HNRNPC | SID160775124 | -0.695 | -1.92 | 3.5
EDDM3A | SID160729398 | 0.000969 | 2.97 | 6.99
EDDM3A | SID160729399 | 0.24 | 4.66 | 5.35
EDDM3A | SID160730476 | -0.891 | -3.3 | 5.18
MARK1 | SID160776971 | -0.272 | 1.05 | 5.96
MARK1 | SID160776972 | -0.142 | 1.97 | 6.07
MARK1 | SID160776973 | -0.438 | -0.115 | 3.98
OTULIN | SID160753619 | -0.0544 | 2.58 | 5.18
OTULIN | SID160753620 | 0.858 | 9.01 | 5.82
OTULIN | SID160753621 | 0.512 | 6.57 | 5.01
AFAP1L2 | SID160752483 | -0.51 | -0.618 | 3.9
AFAP1L2 | SID160752484 | -0.0485 | 2.63 | 4.24
AFAP1L2 | SID160752486 | -0.922 | -3.52 | 1.34
RND2 | SID160719671 | 0.428 | 5.98 | 8.12
RND2 | SID160719673 | 1.7 | 14.9 | 9.81
RND2 | SID160731968 | 4.07 | 31.6 | 14.9
EPHB6 | SID160761083 | 2 | 17 | 11.2
EPHB6 | SID160761094 | 1.03 | 10.2 | 8.85
EPHB6 | SID160761105 | 0.212 | 4.46 | 5.6
POMC | SID160714649 | -1.03 | -4.3 | 3.5
POMC | SID160723996 | -0.636 | -1.51 | 3.64
POMC | SID160723997 | -0.352 | 0.49 | 4.87
RAP1A | SID160715646 | 1.48 | 13.4 | 9.57
RAP1A | SID160715648 | 0.59 | 7.12 | 7.4
RAP1A | SID160715649 | 1.18 | 11.3 | 7.89
RPS27AP5 | SID160765969 | 6.47 (active) | 48.5 | 20.4
RPS27AP5 | SID160765970 | 0.591 | 7.13 | 6.51
RPS27AP5 | SID160765971 | 6.33 (active) | 47.5 | 25
